The test system of this series is Rat Cardiac Contractility. The series is described as follows: Echocardiography assessment of acute pharmacodynamic effect in rat cardiac contractility (fractional shortening). Conditions: ratio. In kind it is in vivo, Sprague Dawley rats. As to the method: Assessment of in vivo cardiac function by echocardiography was performed in male Sprague Dawley rats under isoflurane (1-3%) anesthesia. 2-D M-mode images of the left ventricle were acquired in the parasternal long-axis view before, during, and after administration of compounds. In vivo fractional shortening was determined by M-mode image analysis with the following calculation: ((End diastolic diameter−end systolic diameter)[…] end diastolic diameter×100). Three pre-dose baseline M-Mode images were taken at 1-minute intervals prior to compound administration. Compounds were formulated in a 0.5% hydroxypropyl methylcellulose 2910 (HPMC 2910): 0.1% Tween 80 suspension and delivered as a single dose (5 mL/kg) by oral gavage. At one and four hours post-dose, rats were lightly anesthetized for M-mode echocardiography measurement. Concurrent with echocardiography measurements, blood samples were taken to determine the corresponding compound plasma concentrations. The resulting plasma concentrations were used to estimate the IC50 and IC10 values, which is the concentration at which fractional shortening is 50% and 10% of the pre-dose baseline contractility, respectively.
For `C[C@H]1CC[C@H](N2CC(=O)N(Cc3ccc(F)c(F)c3)C3(CN(C(N)=O)C3)C2=O)CC1` [Compound 5, 5-(3,4-difluorobenzyl)-8-((1r,4r)-4-methylcyclohexyl)-6,9-dioxo-2,5,8-triazaspiro[3.5]nonane-2-carboxamide], the IC50/IC10 is 3.79.
For `CC(C)N1CC(=O)N(Cc2ccc(Cl)c(F)c2)C2(CN(c3cccnn3)C2)C1=O` [Compound 8, 5-(4-chloro-3-fluorobenzyl)-8-isopropyl-2-(pyridazin-3-yl)-2,5,8-triazaspiro[3.5]nonane-6,9-dione] the value was 4.44.
As to `CC(C)N1CC(=O)N(Cc2ccc(C(F)(F)F)cc2)C2(CN(c3cccnn3)C2)C1=O` [Compound 13, 8-isopropyl-2-(pyridazin-3-yl)-5-(4-(trifluoromethyl)benzyl)-2,5,8-triazaspiro[3.5]nonane-6,9-dione], the IC50/IC10 came to 3.7.
With `C[C@H]1CC[C@H](N2CC(=O)N(Cc3ccc(F)c(F)c3)C3(CN(C=O)C3)C2=O)CC1` [Compound 4, 5-(3,4-difluorobenzyl)-8-((1r,4r)-4-methylcyclohexyl)-6,9-dioxo-2,5,8-triazaspiro[3.5]nonane-2-carbaldehyde] the figure was 9.73; with `C[C@H]1CC[C@H](N2CC(=O)N(Cc3ccc(Cl)cc3)C3(CN(C(N)=O)C3)C2=O)CC1` [Compound 18, 5-(4-chlorobenzyl)-8-((1r,4r)-4-methylcyclohexyl)-6,9-dioxo-2,5,8-triazaspiro[3.5]nonane-2-carboxamide], 3.18.

The record behind these values is patent US12286437B2, “Cardiac sarcomere inhibitors” (Cytokinetics, Inc., priority 2021, dated 2025).
